Data taken from ChEMBL document CHEMBL4296182, “CO-ADD screening of NIH NCI Diversity Set V”.
The list shows a part of the results. Potency and affinity values are given separately.

test system: Pseudomonas aeruginosa; conditions: Concentration 20 uM; ASSAY_TEST Inhibition of Bacterial Growth; detection method Absorption (OD600); MEDIA CAMHB; plate type 384well; NBS; CORNING #3640; time 18 hr

SMILES | Inhibition [%]
COC1C(=O)CCC2(CO2)C1(O)C1(C)OC1CC=C(C)C (stereo not drawn) | 20.47
O=C(NC(=S)Nc1cc(Cl)ccc1O)c1cccc(Br)c1 | 13.53
NC(=O)c1ccccc1NC(=O)COc1ccc(Cl)cc1 | 29.77
O=C(O)CCNC1CCCCC1 | 10.22
Nc1ccc2c(c1)Cc1cc(Cl)c(Cl)cc1-2 | 20.86
S=c1c2nc[nH]c2ncn1CCSC1=NC=NC2=NC=NC21 (stereo not drawn) | 13.05
Nc1ccc(N/C(S)=N/c2ccccc2)cc1 | 6.3
O=C(Nc1csnn1)c1csnn1 | -4.18
COc1ccc(/C(C#N)=C/c2cccnc2)cc1 | 11.13
O=C(Cn1ccc(=O)[nH]c1=O)Nc1nccs1 | 15.58
FC(F)(F)c1nc2nc(Cl)c(Cl)nc2n1CCCN1CCOCC1 | -7.1
COc1cc2c(c3c1c(=O)c1cccc(F)c1n3C)C=CC(C)(C)O2 | 19.51
Cc1ccc(Nc2c(O)ncnc2O)cc1C | -28.62
Nc1ccc(NC(=O)Nc2ccc(N)cc2)cc1 | 0.96
Nc1ncncc1-c1ccc2ccccc2c1 | 4.56
CN(C)c1ncnc2c1ncn2-c1ccccc1 | 1.81
Nc1nc(N)c(/N=N/c2ccc(C(=O)O)cc2)c(N)n1 | 23.91
CSc1nc(N)c(C(=O)Nc2ccc([N+](=O)[O-])cc2)s1 | 26.27
O=C(Nc1cccc2ccccc12)c1ccccc1 | -1
O=C1COc2c1ccc(O)c2O | 8.22
CCn1c2ccccc2c2cc(NC(=O)Nc3ccc([N+](=O)[O-])cc3C)ccc21 | 27.19
Nc1ncnc(N2CCOCC2)n1 | 12.94
NS(=O)(=O)c1ccc(Cl)cc1[N+](=O)[O-] | 10.53
N#C/C(=C\c1c[nH]c2ccccc12)C(N)=O | -1.57

SMILES | Inhibition [%]
CCCCSc1nc(O)cc(C(=O)O)n1 | 1.18
O=C1CCC(NC(=O)c2ccccc2)C(=O)N1 (stereo not drawn) | 10.66
OCC1(CO)COC2(CCCC2)N1 | 18.54
Cc1ccc(C)c(N2CCN(c3ccncc3N)CC2)c1 | 11.49
N#C/C(=C\c1ccc(C#N)cc1)C(=O)c1ccccc1 | 13.09
CC(NC(=O)c1ccc(Cl)c(Cl)c1)c1ccc(-c2ccccc2)cc1 (stereo not drawn) | 26.03
O=[N+]([O-])c1ccc(NN=C(c2ccccc2)c2ccccc2)nc1 | 13.56
O=C(Nc1ccc(Cl)c(Cl)c1)Nc1ccccc1O | -9.09
O=C(O)C1CCC(=O)N1C(=O)OCc1ccccc1 (stereo not drawn) | 27.01
CCOC(=O)Nc1ccc2[nH]c(-c3cscn3)nc2c1 | 20.88
CC(C)n1cnc2c(S)ncnc21 | 21.29
Nc1nnc(-c2cccnc2)s1 | -1.75
N=C(NOC(=O)c1ccccc1)C(Cc1ccccc1)C(=O)NOC(=O)c1ccccc1 (stereo not drawn) | 25.5
CCOC(=O)c1c(C)c(C(=O)OCC)n(C)c1C | -4.64
[O-]/[N+](=C\c1ccccc1)CC1(O)CCCCC1 | 12.13
CCOC(CNCc1cc(C)c2[nH]c3ccccc3c2c1C)OCC | 5.75
CCCOc1nc2c(c(=O)n(C)c(=O)n2C)n1C | 2.64
OCc1ncccc1O | 3.5
Cc1ccc(C(=N)Nc2ccccc2)cc1 | 8.96
O=C(Nc1ccccc1)Oc1cccnc1O | 4.14
O=C1OC(Cc2ccccc2)C(c2ccccc2)C1=O (stereo not drawn) | 4.23
Cc1nc2ccccc2c(N)c1-c1cc(C)c2c(C)nc3ccccc3c2n1 | -5.19
O=C(Nc1ccc(O)c(C(=O)O)c1)Oc1ccccc1 | -10.73
COc1cccc(-c2nnc(N)o2)c1 | -0.55

SMILES | Inhibition [%]
O=C(Nc1ccc2ccccc2c1)c1cccc(F)c1 | 7.7
ON=C(NCc1ccccc1)c1ccccc1 | -32.49
Oc1ccccc1Nc1ccccn1 | 28.86
Brc1ccc(-c2csc(Nc3nc(-c4ccc(Br)cc4)cs3)n2)cc1 | 21.13
Cc1ccc(S(=O)(=O)NC(=O)Nc2nccs2)cc1 | 15.02
c1ccc(-c2cc3ccccc3[nH]2)cc1 [2-PHENYL-1H-INDOLE] | 24.3
CC1=CN2C(c3cccc([N+](=O)[O-])c3)=NON(c3ccc(C)cn3)C2C=C1 (stereo not drawn) | 31.3
COc1ccc(C(=O)O)nc1C | 17.11
CSc1nc(O)c(Nc2cccc(Cl)c2)c(O)n1 | 1.8
Cc1cc(NC(=O)c2ccccc2)nc(C)n1 | 21.03
O=c1c(-c2ccc(O)cc2)coc2cc(O)cc(O)c12 [GENISTEIN] | 5.66
NCCN1CCNCC1 | 11.73
CN(C)S(=O)(=O)c1ccccc1N=C=S | 12.6
Cc1nc2ccccc2nc1N1CCCC1 | 2.53
COc1cc(C(=O)OC(C)CN2CCOCC2)cc(OC)c1OC (stereo not drawn) | 21.56
O=C(c1cccnc1)N1CCN(c2ccccc2Cl)CC1 | 27.14
S=C1N(c2ccccc2)CN(C2CCCCC2)CN1c1ccccc1 | -0.76
N#CC1=CC2CN(Cc3ccccc3)C1C1C(=O)N(c3ccccc3)C(=O)C21 (stereo not drawn) | -5.11
CC(C)(C)N1CCC1CN (stereo not drawn) | 21.89
COc1ccc(NC(=O)c2cc3ccc4c5ccccc5[nH]c4c3cc2O)cc1 | 22.24
C=CCSc1n[nH]c(-c2cccs2)n1 | 3.24
c1ccc2c(c1)-c1cccc3cncc-2c13 | -2.28
OC(c1ccccc1)(c1ccccc1)c1nccn1-c1ccccc1 | 2.08
Cc1c(Cc2ccccc2)[n+]([O-])c2ccccc2[n+]1[O-] | 14.84

SMILES | Inhibition [%]
Cc1ccc(C)c(-n2c(-c3ccc(Br)cc3)cs/c2=N\C(=O)c2ccccc2F)c1 | 17.59
C#CCOCC1CN(c2ccccc2)C(=O)O1 (stereo not drawn) | 0.87
CC(=C/c1ccccc1)/C=C1/NC(=S)NC1=O | -5.16
O=C1c2ccccc2C(=O)C1c1ccccn1 | -12.18
O=C1c2ccccc2C(=O)c2c1cccc2-n1nnc2ccccc21 | 12.91
Cc1ccc(NC(=O)Nc2cccnc2)cc1NC(=O)Nc1cccnc1 | 27.19
Cc1ccc(NC(=O)NNC(=O)CSC2CCc3ccccc32)c(C)c1 (stereo not drawn) | 16.22
CC(=O)Nc1ccc(S(=O)(=O)N=S(C)C)cc1 | 4.98
NC(=O)c1nnsc1-c1ccc(-c2snnc2C(N)=O)cc1 | 29.23
CC(C)C(=O)Nc1cccnc1 | 13.23
CC(=O)c1cc(O)c2ccccc2c1O | 0.14
COC(=O)Nc1csc2c1NC(=O)CCCC2 | 18.75
Clc1ccc(Oc2nc3c(Cl)cccc3s2)cc1Cl | 16.91
CCc1ccc(CCN2C(=O)c3ccccc3C2=O)nc1 | 6.23
C=C(C)CN1C(=O)C(C)S/C1=N/N=C1/SCC(=O)N1C (stereo not drawn) | 19.34
CC(O)(c1ccccc1)C(c1ccccc1)C1CCCCN1 (stereo not drawn) | -0.87
O=C(Nc1cccc(-c2ccccc2)c1)N1CCN(C(=O)Nc2cccc(-c3ccccc3)c2)CC1 | 16.81
CCOC(=O)/C=C/c1nc(O)c(C)c(C(=O)OCC)n1 | 7.14
O=c1[nH]cc(Cl)cc1Cl | 23.82
CN(C)/C=N/c1ccc(Cl)c(Cl)c1 | -9.94
CCOC(=O)Nc1ccc2nc(Sc3ccc(Cl)cc3)sc2c1 | 13.48
CC(=O)CC[N+](C)(C)C.[I-] | 4.37
COc1cc(C2NC(=O)C(C#N)=C(Nc3cccc(C)c3)S2)ccc1O (stereo not drawn) | 24.75
Cc1ccc(Nc2ccc(N)cc2S(=O)(=O)O)cc1 | 0.58

SMILES | Inhibition [%]
CC(=O)Nc1ccc(OC(=O)Oc2ccc(NC(C)=O)cc2)cc1 | 18.73
CCCCCC(=O)N1CCCC1 | 4.13
NNC(=O)Cc1cc(O)[nH]n1 | 7.46
O=C(O)c1cc2ccccc2cc1Nc1ccccc1 | -18.37
CC(=O)NS(=O)(=O)c1ccc2sc(C)nc2c1 | 11.44
CC(C)(NC(=O)c1cc(Cl)c2ccccc2c1O)C(=O)O | 19.83
Nc1ccc(-c2nc3nc(N)nc(N)c3nc2-c2ccc(N)cc2)cc1 | 2.51
CC(C)(C)n1nc(C2CC2)cc1NC(=O)Nc1ccccc1 | 21.35
O=C1/C(=C/c2ccc([N+](=O)[O-])cc2)CCc2ccccc21 | 15.35
Oc1ncnc(CN2CCCCC2)c1O | 13.07
Brc1ccc(/N=N/c2ccc3ccccc3n2)cc1 | -8.76
CC1=C(C(N)=O)S(=O)(=O)c2ccccc21 | 17.62
N[C@H](C(=O)O)[C@H]1ON=C(Cl)[C@@H]1O | 6.12
CC(=O)NC1=C/C(=C\[N+](=O)[O-])C=C1O | 20.31
COc1c(/C=N/NC(N)=O)c(OC)c(OC)c2c1CCO2 | -6.5
Nc1ccc(C(=O)C(=O)c2ccc(N)cc2)cc1 | -28.14
Cc1cc(C)n2c(C)nnc2c1 | 1.58
Cc1ccc(NC(=O)Nc2nc3ccccc3s2)cc1NC(=O)Nc1nc2ccccc2s1 | 21.18
O=C1OCC/C1=C\OCCCO/C=C1\CCOC1=O | -6.5
COc1cc(-c2ccc(NC(=O)NC3CC3)c(OC)c2)ccc1NC(=O)NC1CC1 | 15.9
O=C(Nc1ccc(Br)c2ccccc12)c1ccc2ccccc2c1O | -14.22
COc1cccc(/C=C2\CCc3ccccc3C2=O)c1 | 19.09

For convenience, part of the list above:
SMILES | Inhibition [%]
CN(C)c1ncnc2c1ncn2-c1ccccc1 | 1.81
Nc1nc(N)c(/N=N/c2ccc(C(=O)O)cc2)c(N)n1 | 23.91
CSc1nc(N)c(C(=O)Nc2ccc([N+](=O)[O-])cc2)s1 | 26.27
O=C(Nc1cccc2ccccc12)c1ccccc1 | -1
O=C1COc2c1ccc(O)c2O | 8.22
CCn1c2ccccc2c2cc(NC(=O)Nc3ccc([N+](=O)[O-])cc3C)ccc21 | 27.19
Nc1ncnc(N2CCOCC2)n1 | 12.94
NS(=O)(=O)c1ccc(Cl)cc1[N+](=O)[O-] | 10.53
N#C/C(=C\c1c[nH]c2ccccc12)C(N)=O | -1.57
CCCCSc1nc(O)cc(C(=O)O)n1 | 1.18
O=C1CCC(NC(=O)c2ccccc2)C(=O)N1 (stereo not drawn) | 10.66
OCC1(CO)COC2(CCCC2)N1 | 18.54
Cc1ccc(C)c(N2CCN(c3ccncc3N)CC2)c1 | 11.49
N#C/C(=C\c1ccc(C#N)cc1)C(=O)c1ccccc1 | 13.09
CC(NC(=O)c1ccc(Cl)c(Cl)c1)c1ccc(-c2ccccc2)cc1 (stereo not drawn) | 26.03
O=[N+]([O-])c1ccc(NN=C(c2ccccc2)c2ccccc2)nc1 | 13.56
O=C(Nc1ccc(Cl)c(Cl)c1)Nc1ccccc1O | -9.09
O=C(O)C1CCC(=O)N1C(=O)OCc1ccccc1 (stereo not drawn) | 27.01
CCOC(=O)Nc1ccc2[nH]c(-c3cscn3)nc2c1 | 20.88
CC(C)n1cnc2c(S)ncnc21 | 21.29
Nc1nnc(-c2cccnc2)s1 | -1.75
N=C(NOC(=O)c1ccccc1)C(Cc1ccccc1)C(=O)NOC(=O)c1ccccc1 (stereo not drawn) | 25.5
CCOC(=O)c1c(C)c(C(=O)OCC)n(C)c1C | -4.64
[O-]/[N+](=C\c1ccccc1)CC1(O)CCCCC1 | 12.13
CCOC(CNCc1cc(C)c2[nH]c3ccccc3c2c1C)OCC | 5.75
CCCOc1nc2c(c(=O)n(C)c(=O)n2C)n1C | 2.64
OCc1ncccc1O | 3.5
Cc1ccc(C(=N)Nc2ccccc2)cc1 | 8.96
O=C(Nc1ccccc1)Oc1cccnc1O | 4.14
O=C1OC(Cc2ccccc2)C(c2ccccc2)C1=O (stereo not drawn) | 4.23
